Reference: paper PMC2253824
Substitutions are numbered along the chain they refer to. No constants are given. Whether binding was seen depends on the method and setting. For some of these results: A result given as binding can be weak or reduced; the word gives no strength. Tags and fused reporters may be left off the sequences shown.

Assays:
Test in all cases: pull-down; 10 µg GST-TTC4 (wild type or mutant) on glutathione beads with 6 µg HSP90; 10 mM Tris pH 7.5, 150 mM NaCl, 0.1% triton X100; 1 hour at 4°C; Coomassie stained gel; both purified
[1] = target: T1, GST-TTC4 wild type (human) (UniProt O95801)
T1 sequence: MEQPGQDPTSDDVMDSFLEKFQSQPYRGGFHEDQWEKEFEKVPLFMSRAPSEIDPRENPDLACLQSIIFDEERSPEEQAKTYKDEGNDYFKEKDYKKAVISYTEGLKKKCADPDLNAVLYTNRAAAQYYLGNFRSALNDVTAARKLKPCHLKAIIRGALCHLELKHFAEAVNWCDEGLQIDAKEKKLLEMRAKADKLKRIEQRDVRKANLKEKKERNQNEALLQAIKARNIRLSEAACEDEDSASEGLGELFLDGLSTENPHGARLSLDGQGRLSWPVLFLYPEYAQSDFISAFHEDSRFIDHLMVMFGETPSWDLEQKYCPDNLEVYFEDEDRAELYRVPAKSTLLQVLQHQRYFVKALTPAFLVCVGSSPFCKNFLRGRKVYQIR

[2] = target: T2, K152E GST-TTC4 mutant (human) (UniProt O95801)
T2 sequence: T1 sequence with K152E

[3] = target: T3, K152E, R156E GST-TTC4 mutant (human) (UniProt O95801)
T3 sequence: T1 sequence with K152E, R156E

[4] = target: T4, R156E GST-TTC4 mutant (human) (UniProt O95801)
T4 sequence: T1 sequence with R156E

binding [1]: binds
Substance: purified HSP90 (human)
binding [2]: no binding (tested: 6 µg of HSP90 with 10 µg of GST-TTC4)
binding [3]: no binding (tested: 6 µg of HSP90 with 10 µg of GST-TTC4)
binding [4]: no binding (tested: 6 µg of HSP90 with 10 µg of GST-TTC4)
